Reference: article PMC8079451, “Phosphopeptide interactions of the Nbs1 N-terminal FHA-BRCT1/2 domains” (Scientific Reports, 2021)
Results are given in words; binding and its absence hold for the method and conditions named.

The chains behind the UniProt entries cited, without tags or fusion partners. Residues count along the entry.
UniProt O60934, residues 1-384: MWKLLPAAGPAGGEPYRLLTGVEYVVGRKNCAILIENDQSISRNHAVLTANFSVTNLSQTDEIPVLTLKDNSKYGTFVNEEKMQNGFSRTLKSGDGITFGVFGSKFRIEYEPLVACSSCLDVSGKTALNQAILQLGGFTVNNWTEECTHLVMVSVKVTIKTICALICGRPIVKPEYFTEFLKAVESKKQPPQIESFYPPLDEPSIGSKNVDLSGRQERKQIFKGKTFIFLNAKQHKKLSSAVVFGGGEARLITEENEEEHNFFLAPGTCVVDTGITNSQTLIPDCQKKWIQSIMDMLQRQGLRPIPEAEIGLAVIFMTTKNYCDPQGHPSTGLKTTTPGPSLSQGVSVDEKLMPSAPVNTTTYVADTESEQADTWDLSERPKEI

Assays:
Test in all cases: fluorescence polarisation; 100 nM FITC-labeled phosphopeptide with increasing hsNbs1(384); room temperature, 15 min incubation; 25 mM HEPES pH 7.4, 150 mM NaCl, 1 mM EDTA, 2 mM DTT, 0.05% Tween20, 0.1% BSA; one-site model; both purified
[1] = biological target: T1, XRCC1 pS518,pT519 phosphopeptide FITC-GG-DPYAG(pSpT)… (human)
T1 sequence (peptide, phosphoserine pS518, phosphothreonine pT519; FITC on the N-terminus (FITC-GG-)): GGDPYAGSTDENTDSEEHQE

[2] = biological target: T2, XRCC1 pS447 phosphopeptide FITC-GG-AGPS(pS)PQKP (human)
T2 sequence (peptide, phosphoserine pS447; FITC on the N-terminus (FITC-GG-)): GGAGPSSPQKP

[3] = biological target: T3, CtIP pS327 phosphopeptide FITC-GG-TRVS(pS)PVFGAT (human)
T3 sequence (peptide, phosphoserine pS327; FITC on the N-terminus (FITC-GG-)): GGTRVSSPVFGAT

- binding [1]: no binding (tested: > 65 µM)
- binding [2]: no binding
- binding [3]: no binding
Substance: hsNbs1(384), the N-terminal 384 residues of homo sapiens Nbs1 containing the FHA-BRCT1-BRCT2 domains (from UniProt O60934 1-384) (domain or fragment)
